# Results are given in words; binding and its absence hold for the method and conditions named. In cells and extracts the contact can be indirect. Some results given as binding are weak or reduced against the parent protein; the word gives no strength.
# By UniProt entry, the sequences of proteins in these tests, tags left out.
# UniProt P04150: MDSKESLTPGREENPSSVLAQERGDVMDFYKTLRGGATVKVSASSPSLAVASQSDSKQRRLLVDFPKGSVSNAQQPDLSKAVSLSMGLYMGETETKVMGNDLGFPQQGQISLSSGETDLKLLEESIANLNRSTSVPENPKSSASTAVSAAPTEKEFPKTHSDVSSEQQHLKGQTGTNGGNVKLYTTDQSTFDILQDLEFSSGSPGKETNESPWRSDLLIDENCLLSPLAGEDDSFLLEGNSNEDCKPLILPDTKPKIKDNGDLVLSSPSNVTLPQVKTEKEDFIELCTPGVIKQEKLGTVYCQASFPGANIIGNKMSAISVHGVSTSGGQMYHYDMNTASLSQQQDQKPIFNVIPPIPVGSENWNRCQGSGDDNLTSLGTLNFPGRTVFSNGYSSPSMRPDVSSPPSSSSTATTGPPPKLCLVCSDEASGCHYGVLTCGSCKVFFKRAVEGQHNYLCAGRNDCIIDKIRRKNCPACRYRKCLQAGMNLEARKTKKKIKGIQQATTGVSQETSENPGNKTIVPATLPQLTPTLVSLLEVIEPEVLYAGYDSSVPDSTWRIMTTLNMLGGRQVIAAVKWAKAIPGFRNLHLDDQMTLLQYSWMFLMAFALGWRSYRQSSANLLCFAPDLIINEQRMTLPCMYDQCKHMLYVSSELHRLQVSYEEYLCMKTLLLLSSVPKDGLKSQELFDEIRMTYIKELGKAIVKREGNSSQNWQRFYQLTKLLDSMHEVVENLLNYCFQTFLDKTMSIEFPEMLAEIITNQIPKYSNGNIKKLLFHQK
# UniProt Q04206: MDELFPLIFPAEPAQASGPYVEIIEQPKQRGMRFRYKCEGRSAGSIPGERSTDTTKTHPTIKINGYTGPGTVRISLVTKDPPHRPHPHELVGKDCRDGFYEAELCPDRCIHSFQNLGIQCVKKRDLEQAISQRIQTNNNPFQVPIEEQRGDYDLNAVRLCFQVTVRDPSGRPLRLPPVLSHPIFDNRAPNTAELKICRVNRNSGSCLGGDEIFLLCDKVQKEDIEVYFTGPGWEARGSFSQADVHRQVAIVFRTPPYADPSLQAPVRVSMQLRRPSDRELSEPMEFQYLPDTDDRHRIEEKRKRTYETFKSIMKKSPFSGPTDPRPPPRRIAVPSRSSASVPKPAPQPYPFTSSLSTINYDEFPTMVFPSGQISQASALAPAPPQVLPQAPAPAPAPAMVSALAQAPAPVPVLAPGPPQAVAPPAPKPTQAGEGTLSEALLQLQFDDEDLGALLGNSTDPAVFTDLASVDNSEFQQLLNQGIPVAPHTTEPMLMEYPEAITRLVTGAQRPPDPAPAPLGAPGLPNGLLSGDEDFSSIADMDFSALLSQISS
# UniProt P05412: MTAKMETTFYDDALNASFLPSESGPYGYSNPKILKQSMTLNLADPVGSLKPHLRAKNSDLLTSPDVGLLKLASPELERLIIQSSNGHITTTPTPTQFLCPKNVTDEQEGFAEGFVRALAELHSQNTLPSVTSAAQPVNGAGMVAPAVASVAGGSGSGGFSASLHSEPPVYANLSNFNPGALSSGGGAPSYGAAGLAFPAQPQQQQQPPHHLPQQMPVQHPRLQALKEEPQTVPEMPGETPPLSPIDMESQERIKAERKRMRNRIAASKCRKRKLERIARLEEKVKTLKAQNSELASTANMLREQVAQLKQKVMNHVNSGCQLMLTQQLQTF
# Biological target: glucocorticoid receptor (human (endogenous in primary ASMC)) (UniProt P04150)
# Assay: co-IP; endogenous proteins in lysates of primary ASMC from COPD responders and non-responders to ICS, without or with dexamethasone (1 x 10^-8 M); non-denaturing lysis buffer with 0.1% SDS, 1% NP40 and 0.5% deoxycholate; 100 µg protein with primary antibody overnight at 4 °C, sepharose beads 1 h; detection by Western blot
row,Substance,binding
1,NF-κB p65 (from UniProt Q04206 1-551),binds
2,c-Jun (from UniProt P05412 1-331),binds

# Reference: publication PMC11137987
